# Laboratory results as given in the supplement of paper PMC3334620.
# Whole data set: some 33,000 sequences, median “E-score (-0.5 to 0.5)” near -0.0059, cut for the highest 2% near 0.26. Some of the results follow.
# Biological target: T1, Cin5 (UniProt P40917)
# T1 sequence: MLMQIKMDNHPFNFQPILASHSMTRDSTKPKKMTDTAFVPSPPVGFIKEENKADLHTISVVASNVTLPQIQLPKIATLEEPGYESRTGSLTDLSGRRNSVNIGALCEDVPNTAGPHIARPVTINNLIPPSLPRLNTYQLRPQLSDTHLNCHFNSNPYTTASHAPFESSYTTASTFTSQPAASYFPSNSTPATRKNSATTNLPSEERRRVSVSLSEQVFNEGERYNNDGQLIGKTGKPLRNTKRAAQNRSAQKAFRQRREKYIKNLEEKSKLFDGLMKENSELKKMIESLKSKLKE
# Assay: PBM E-score (8-mer binding enrichment) (E-score (-0.5 to 0.5)); higher = stronger / more preferred TF binding
# Conditions: protein concentration: 100 nM; construct: GST-full length
# Method in brief: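 Universal all-10-mer Agilent arrays, fresh or stripped once, were converted to double-stranded form by primer extension. GST-tagged yeast transcription factors from PURExpress in vitro transcription/translation, full-length or DNA-binding domain only, were applied at about 100-200 nM and detected with fluorescent anti-GST. After masliner normalisation, the Universal PBM Analysis Suite scored each ungapped eight-base word together with its reverse complement by E-score.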
row,Sequence,PBM E-score
1,CACATGTA,0.146
2,ACCGCCCG,-0.236
3,CGTTGGTA,-0.0695
4,ATAATATC,0.221
5,GACTTTGA,-0.00717
6,CCCAGTGA,-0.202
7,AAGTCGGG,-0.0202
8,CGCAACAC,0.0943
9,GCGCAACC,-0.0217
10,AATTATTA,0.242
11,CTCCCCAA,-0.00166
12,GTTCCCAA,-0.187
13,CCGATATA,0.0428
14,CTCCTCAA,-0.257
15,CGCTAGCC,-0.249
16,ACGTCTAA,0.0554
17,CCTTTTCG,-0.0528
18,AGTTGCCG,-0.0277
19,CCGTTCAG,-0.0278
20,CTTAGGCC,-0.228
21,ATCTAAAG,-0.0819
22,CACGGTAA,0.0326
23,GCGCATAC,-0.00979
24,CATTACGG,0.0504
25,GGTCTAGA,-0.202

# Quoted from the listing:
# PBM E-score with CCGTTCAG is entered as -0.0278
# PBM E-score with GCGCATAC is entered as -0.00979

# Following part.

row,Sequence,PBM E-score
1,AAGAGTGG,-0.115
2,GATCCCCC,-0.426
3,GGAACCAA,0.0941
4,ACACAGGC,0.0146
5,GAACGTTA,-0.104
6,GGATACTA,0.00323
7,TAACGCAA,0.142
8,CCGCGTAG,0.0587
9,GCTAAGCC,-0.0285
10,GTGCCATA,-0.101
11,GATGATGC,-0.0135
12,CCGTCCAG,-0.201
13,AGCCATGA,0.0314
14,AACATTTA,0.148
15,GGGAGCCC,-0.419
16,CTGTTGTA,0.0816
17,AAAGAACA,0.0152
18,TAACTTCA,0.0483
19,CAGATTAG,-0.00484
20,GACAACAA,0.152
21,GAGTGCAC,-0.19
22,AATTTTCC,0.289
23,AGTGAAGA,-0.0895
24,AGAGATAT,-0.0177
25,AGCGGAAG,0.032

row,Sequence,PBM E-score
1,CGGGAAAA,-0.0166
2,CCTATAAA,-0.172
3,GCCGGCGA,-0.061
4,ATTTTGCA,0.0628
5,GACCGGCC,-0.202
6,AGCCGTAT,-0.0916
7,CCAGTGCC,-0.216
8,ACGCAGCC,-0.0404
9,AAAAGCCG,-0.0441
10,AAATTAGT,0.293
11,AATCAAAA,0.215
12,CCGCGCAC,0.0174
13,ACGTAGTC,-0.157
14,CAATTAAC,0.134
15,CCCGCCGG,-0.0652
16,GAGGCAGA,-0.146
17,CCAGTACA,0.0538
18,ATCTTGAC,0.0245
19,AATTGGCA,0.00514
20,AGGGGTTC,-0.0221
21,GGTCCAGA,-0.11
22,CGTGAATC,-0.0259
23,GTTCCGCA,0.176
24,AGGTGGAC,-0.165
25,GAACGGTA,0.0193

# Given with bars between the fields: part of the list above
row | Sequence | PBM E-score
2 | CCTATAAA | -0.172
3 | GCCGGCGA | -0.061
4 | ATTTTGCA | 0.0628
5 | GACCGGCC | -0.202
6 | AGCCGTAT | -0.0916
7 | CCAGTGCC | -0.216
8 | ACGCAGCC | -0.0404

# Next entries follow.

row,Sequence,PBM E-score
1,AACGTACG,0.0497
2,ACGTGAAT,0.0449
3,ACTGCCTG,-0.0627
4,CGTCTACC,-0.0219
5,GCGGCTAC,-0.0398
6,ACGATGCG,-0.0926
7,AAGTAGAT,0.177
8,CGCTCACG,0.0438
9,ATAAAATA,0.242
10,CCGCCCCG,0.24
11,AAACGTCC,0.00601
12,GTGTTCGA,0.0696
13,CGTTTTCA,0.0715
14,ACTTCTTG,-0.0532
15,AATCTCAG,-0.0909
16,GCTTCACA,0.0129
17,AGTCGCAT,-0.00653
18,ATTATGAA,0.258
19,GCTCAAAC,0.0406
20,GCGAGCAC,-0.0363
21,GATTGGGA,-0.112
22,CTCATACC,0.154
23,GATGTCGC,-0.0423
24,CGCTAGTA,0.036
25,CTGGTGGC,-0.107

row,Sequence,PBM E-score
1,CAATGATA,0.182
2,ATTCTTCG,0.138
3,GTTTGGTA,0.296
4,CCTCACAG,0.0094
5,GAGGCCAC,-0.184
6,CGTGATAA,0.0731
7,AGTTCACC,0.049
8,AAAGCCTT,-0.124
9,CTGCATAA,0.0574
10,GTGGCCCA,-0.181
11,AGGTAATA,0.296
12,ATCCCTCG,-0.111
13,AGGCCACA,-0.135
14,TCCCCAAA,0.193
15,CTGATCGA,-0.179
16,AATACAGC,0.0259
17,CGATTGTC,-0.0858
18,CAAAAGCC,-0.0698
19,GAAGGTAC,-0.0752
20,AGGTCGTG,-0.0245
21,ACTTCATC,-0.0118
22,CCGCGGCG,0.0289
23,CCAGTGAA,-0.0669
24,GACGCCTA,-0.156
25,AAGACTCG,-0.0863

row,Sequence,PBM E-score
1,CAAGACCC,-0.218
2,CAGCGCAG,-0.0299
3,CACGCTGA,0.0116
4,AGCACAAC,0.161
5,ACCGAACT,-0.101
6,CTGGTTTC,0.0335
7,AAGGCTGA,-0.0563
8,AAATTGTG,0.0281
9,AAGAACAC,0.00844
10,CAGTGCAC,-0.107
11,AAAAACAC,0.0623
12,ACCTGACC,-0.0495
13,GACCCCAC,0.0467
14,GAGAACCC,-0.19
15,ATACTTTG,0.2
16,GGTCGTGA,-0.12
17,TCAATGGA,-0.00944
18,CTCTTATA,0.147
19,AATTATCT,0.331
20,AGATGCAG,0.00347
21,GTAGCGTA,0.084
22,AGTGTGCA,0.0784
23,ACGTTGAT,0.17
24,CTGGCGGC,-0.115
25,CAAGACGA,-0.0306

row,Sequence,PBM E-score
1,CATAGGTA,-0.00172
2,ACAGCCCA,-0.0887
3,ATTTGAGC,0.0476
4,CCGACCGG,-0.211
5,CGATGCAA,0.043
6,ATGACATA,0.296
7,ATTCGATG,-0.0175
8,ATCGCTCA,0.0669
9,ACCATGGC,-0.00051
10,CCATCCCG,-0.073
11,AAAAGATA,0.0936
12,CTTATCCA,0.221
13,AACCGATA,0.146
14,TATCTCAA,0.261
15,AACTCCTG,-0.131
16,GATTTGCA,0.111
17,CGAGACCG,-0.157
18,GGCAATAC,0.136
19,GCCTTCGA,-0.109
20,AGTGGAAA,0.0448
21,AAGCAGAC,0.0637
22,CTTCATAC,0.165
